{"source": "the supplement of paper PMC4807443", "note": "Structures can show the parent of a compound that is named as a salt. The list shows a part of the results. The numbers are fractions of the control, whatever unit the source prints. Most values lie at the level of the controls, where differences are scatter.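 A lentiviral reporter stably expressed in MIN6 mouse insulinoma beta cells uses Pdx1 and Ins1 promoters to drive separate nucleus-targeted fluorescent proteins; automated imaging with Hoechst nuclear stain counted cells. Possible hits were drugs shifting Ins1 promoter signal more than two median absolute deviations from DMSO controls, with Pdx1 activity roughly normal.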"}
{"test_system": "MIN6", "assay": "% Pdx1+ Ins1-low (RFP-only, immature) cells relative to DMSO control (fold of DMSO control); higher = more immature Pdx1+/Ins1-low cells", "conditions": "8.5 µM; 48 h; glucose 5 mM"}
{"smiles": "CC[C@H]1OC(=O)[C@H](C)[C@@H](O[C@H]2C[C@@](C)(OC)[C@@H](O)[C@H](C)O2)[C@H](C)[C@@H](O[C@@H]2O[C@H](C)C[C@H](N(C)C)[C@H]2O)[C@](C)(O)C[C@@H](C)[C@@H]2N[C@@H](COCCOC)O[C@H]([C@H]2C)[C@]1(C)O", "note": "[Dirithromycin]", "% Pdx1+ Ins1-low": 1.26}
{"smiles": "CC(C)CC(=O)N[C@H](C(=O)N[C@H](C(=O)N[C@@H](CC(C)C)[C@@H](O)CC(=O)N[C@@H](C)C(=O)N[C@@H](CC(C)C)[C@@H](O)CC(=O)O)C(C)C)C(C)C", "note": "[Pepstatin A]", "% Pdx1+ Ins1-low": 1.05}
{"smiles": "C[C@H](O)C(=O)Nc1c(I)c(C(=O)NC(CO)CO)c(I)c(C(=O)NC(CO)CO)c1I", "note": "[Iopamidol]", "% Pdx1+ Ins1-low": 0.676}
{"smiles": "CC1=Nc2ccc(Cl)cc2S(=O)(=O)N1", "note": "[Diazoxide]", "% Pdx1+ Ins1-low": 1.1}
{"smiles": "CC(C(=O)O)c1ccc(N2Cc3ccccc3C2=O)cc1", "note": "(stereo unspecified) [Indoprofen]", "% Pdx1+ Ins1-low": 0.613}
{"smiles": "CCN1CCN(C(=O)N[C@@H](C(=O)N[C@@H]2C(=O)N3C(C(=O)O)=C(CSc4nnnn4C)CS[C@H]23)c2ccc(O)cc2)C(=O)C1=O", "note": "[Cefoperazone dihydrate]", "% Pdx1+ Ins1-low": 0.982}
{"smiles": "COC(=O)Nc1nc2ccc(SC(C)C)cc2[nH]1", "note": "[Methiazole]", "% Pdx1+ Ins1-low": 1.24}
{"smiles": "Cc1ccc(Cl)c(Nc2ccccc2C(=O)O)c1Cl", "note": "[Meclofenamic acid sodium salt monohydrate]", "% Pdx1+ Ins1-low": 0.971}
{"smiles": "C[C@H]1C[C@H]2[C@@H]3CCC4=CC(=O)C=C[C@]4(C)[C@@]3(F)[C@@H](O)C[C@]2(C)[C@@]1(O)C(=O)CO", "note": "[Betamethasone]", "% Pdx1+ Ins1-low": 1.02}
{"smiles": "Oc1ccc(OCc2ccccc2)cc1", "note": "[Monobenzone]", "% Pdx1+ Ins1-low": 0.889}
{"smiles": "O=C(O)/C=C/c1ccc(Cn2ccnc2)cc1", "note": "[Ozagrel hydrochloride]", "% Pdx1+ Ins1-low": 1.1}
{"smiles": "CCCCNc1ccc(C(=O)OCCOCCOCCOCCOCCOCCOCCOCCOCCOC)cc1", "note": "[Benzonatate]", "% Pdx1+ Ins1-low": 0.564}
{"smiles": "CCn1nc(C(=O)O)c(=O)c2cc3c(cc21)OCO3", "note": "[Cinoxacin]", "% Pdx1+ Ins1-low": 0.701}
{"smiles": "O=C(O)COC(=O)Cc1ccccc1Nc1c(Cl)cccc1Cl", "note": "[Aceclofenac]", "% Pdx1+ Ins1-low": 0.536}
{"smiles": "CCN1CCC[C@H]1CNC(=O)c1c(OC)ccc(Br)c1OC", "note": "[Remoxipride Hydrochloride]", "% Pdx1+ Ins1-low": 0.863}
{"smiles": "Cc1nnc(NS(=O)(=O)c2ccc(N)cc2)s1", "note": "[Sulfamethizole]", "% Pdx1+ Ins1-low": 0.806}
{"smiles": "CC1CC(OC(=O)C(O)c2ccccc2)CC(C)(C)N1C", "note": "(stereo unspecified) [Eucatropine hydrochloride]", "% Pdx1+ Ins1-low": 0.858}
{"smiles": "COc1ccc2c(OC)c3ccoc3nc2c1OC", "note": "[Skimmianine]", "% Pdx1+ Ins1-low": 0.94}
{"smiles": "C1CCN2C[C@@H]3C[C@@H](CN4CCCC[C@@H]34)[C@H]2C1", "note": "[Sparteine (-)]", "% Pdx1+ Ins1-low": 0.978}
{"smiles": "CC(C)COCC(CN(Cc1ccccc1)c1ccccc1)N1CCCC1", "note": "(stereo unspecified) [Bepridil hydrochloride]", "% Pdx1+ Ins1-low": 0.692}
{"smiles": "CCOc1ccc2c(c1)C(C)=CC(C)(C)N2", "note": "[Ethoxyquin]", "% Pdx1+ Ins1-low": 1.67}
{"smiles": "CCOC(=O)[C@H](CCc1ccccc1)N[C@@H](C)C(=O)N1[C@H](C(=O)O)C[C@@H]2CCC[C@@H]21", "note": "[Ramipril]", "% Pdx1+ Ins1-low": 0.625}
{"smiles": "NC(=O)c1ncn([C@@H]2O[C@H](CO)[C@@H](O)[C@H]2O)n1", "note": "[Ribavirin]", "% Pdx1+ Ins1-low": 0.396}
{"smiles": "CN[C@H](CC(C)C)C(=O)N[C@H]1C(=O)N[C@@H](CC(N)=O)C(=O)N[C@H]2C(=O)N[C@H]3C(=O)N[C@H](C(=O)N[C@H](C(=O)O)c4cc(O)cc(O)c4-c4cc3ccc4O)[C@H](O)c3ccc(c(Cl)c3)Oc3cc2cc(c3O[C@@H]2O[C@H](CO)[C@@H](O)[C@H](O)[C@H]2O[C@H]2C[C@](C)(N)[C@H](O)[C@H](C)O2)Oc2ccc(cc2Cl)[C@H]1O", "note": "[Vancomycin hydrochloride]", "% Pdx1+ Ins1-low": 0.776}
{"smiles": "NS(=O)(=O)c1cc2c(cc1Cl)N=CNS2(=O)=O", "note": "[Chlorothiazide]", "% Pdx1+ Ins1-low": 1.1}
{"smiles": "Cc1cc(C2CCCCC2)n(O)c(=O)c1", "note": "[Ciclopirox ethanolamine]", "% Pdx1+ Ins1-low": 1}
{"smiles": "NS(=O)(=O)c1cc(C(=O)O)c(NCc2ccco2)cc1Cl", "note": "[Furosemide]", "% Pdx1+ Ins1-low": 0.744}
{"smiles": "N=C(N)NC(=O)c1nc(Cl)c(N)nc1N", "note": "[Amiloride hydrochloride dihydrate]", "% Pdx1+ Ins1-low": 1.11}
{"smiles": "CC(C)(C)C(=O)OCOC(=O)[C@@H]1N2C(=O)[C@@H](NC(=O)[C@H](N)c3ccccc3)[C@H]2SC1(C)C", "note": "[Pivampicillin]", "% Pdx1+ Ins1-low": 0.82}
{"smiles": "O=C1NCN(c2ccccc2)C12CCN(CCCC(c1ccc(F)cc1)c1ccc(F)cc1)CC2", "note": "[Fluspirilen]", "% Pdx1+ Ins1-low": 0.944}
{"smiles": "CCCCOC(=O)c1ccc(N)cc1", "note": "[Butamben]", "% Pdx1+ Ins1-low": 1.05}
{"smiles": "COc1cc(Cc2cnc(N)nc2N)cc(OC)c1OC", "note": "[Trimethoprim]", "% Pdx1+ Ins1-low": 0.674}
{"smiles": "CCN(CC)CCOC(=O)C(c1ccccc1)C1CCCCC1", "note": "(stereo unspecified) [Drofenine hydrochloride]", "% Pdx1+ Ins1-low": 0.791}
{"smiles": "CCCCC(CC)CN1CN(CC(CC)CCCC)CC(C)(N)C1", "note": "(stereo unspecified) [Hexetidine]", "% Pdx1+ Ins1-low": 1.6}
{"smiles": "CC(=O)c1ccc2c(c1)N(CCCN1CCC(CCO)CC1)c1ccccc1S2", "note": "[Piperacetazine]", "% Pdx1+ Ins1-low": 0.698}
{"smiles": "CO[C@@]1(NC(=O)Cc2cccs2)C(=O)N2C(C(=O)O)=C(COC(N)=O)CS[C@@H]21", "note": "[Cefoxitin sodium salt]", "% Pdx1+ Ins1-low": 1.01}
{"smiles": "O=C(CCCN1CCC(O)(c2ccc(Br)cc2)CC1)c1ccc(F)cc1", "note": "[Bromperidol]", "% Pdx1+ Ins1-low": 1.29}
{"smiles": "C=C[C@H]1CN2CC[C@H]1C[C@@H]2[C@@H](O)c1ccnc2ccc(OC)cc12", "note": "[Quinidine hydrochloride monohydrate]", "% Pdx1+ Ins1-low": 1.14}
{"smiles": "C[C@]12CC[C@H]3C(=CCc4cc(O)ccc43)[C@@H]1CCC2=O", "note": "[Equilin]", "% Pdx1+ Ins1-low": 0.572}
{"smiles": "Cc1ncc([N+](=O)[O-])n1CC(O)CCl", "note": "(stereo unspecified) [Ornidazole]", "% Pdx1+ Ins1-low": 1.05}
{"smiles": "CN1C(C(=O)Nc2ccccn2)=C(O)c2sccc2S1(=O)=O", "note": "[Tenoxicam]", "% Pdx1+ Ins1-low": 1}
{"smiles": "COc1cc(/C=C/C(=O)N2CCC=CC2=O)cc(OC)c1OC", "note": "[Piperlongumine]", "% Pdx1+ Ins1-low": 1.19}
{"smiles": "Cc1[nH]c(=O)c(C#N)cc1-c1ccncc1", "note": "[Milrinone]", "% Pdx1+ Ins1-low": 0.736}
{"smiles": "CN(C)CCC=C1c2ccccc2CCc2ccccc21", "note": "[Amitryptiline hydrochloride]", "% Pdx1+ Ins1-low": 1.4}
{"smiles": "Cn1c(=O)c2[nH]cnc2n(C)c1=O", "note": "[Aminophylline]", "% Pdx1+ Ins1-low": 1.32}
{"smiles": "CC(C)(Oc1ccc(Cl)cc1)C(=O)O", "note": "[Clofibric acid]", "% Pdx1+ Ins1-low": 1.02}
